From paper PMC3464206
These are yes or no findings as the source states them, for the method shown. In cells and extracts the contact can be indirect. A yes stands for co-enrichment or nearness to the bait. Other partners may have been found.

Chains of the proteins cited; added tags and fusions are not shown.
UniProt Q61166: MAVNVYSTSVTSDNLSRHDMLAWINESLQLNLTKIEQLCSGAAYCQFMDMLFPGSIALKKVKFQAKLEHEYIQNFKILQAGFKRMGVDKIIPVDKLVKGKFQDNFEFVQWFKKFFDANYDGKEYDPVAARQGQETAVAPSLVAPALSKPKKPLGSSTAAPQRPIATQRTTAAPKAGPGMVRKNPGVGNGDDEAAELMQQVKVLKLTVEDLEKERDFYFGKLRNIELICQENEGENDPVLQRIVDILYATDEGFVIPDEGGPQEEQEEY
UniProt P48722: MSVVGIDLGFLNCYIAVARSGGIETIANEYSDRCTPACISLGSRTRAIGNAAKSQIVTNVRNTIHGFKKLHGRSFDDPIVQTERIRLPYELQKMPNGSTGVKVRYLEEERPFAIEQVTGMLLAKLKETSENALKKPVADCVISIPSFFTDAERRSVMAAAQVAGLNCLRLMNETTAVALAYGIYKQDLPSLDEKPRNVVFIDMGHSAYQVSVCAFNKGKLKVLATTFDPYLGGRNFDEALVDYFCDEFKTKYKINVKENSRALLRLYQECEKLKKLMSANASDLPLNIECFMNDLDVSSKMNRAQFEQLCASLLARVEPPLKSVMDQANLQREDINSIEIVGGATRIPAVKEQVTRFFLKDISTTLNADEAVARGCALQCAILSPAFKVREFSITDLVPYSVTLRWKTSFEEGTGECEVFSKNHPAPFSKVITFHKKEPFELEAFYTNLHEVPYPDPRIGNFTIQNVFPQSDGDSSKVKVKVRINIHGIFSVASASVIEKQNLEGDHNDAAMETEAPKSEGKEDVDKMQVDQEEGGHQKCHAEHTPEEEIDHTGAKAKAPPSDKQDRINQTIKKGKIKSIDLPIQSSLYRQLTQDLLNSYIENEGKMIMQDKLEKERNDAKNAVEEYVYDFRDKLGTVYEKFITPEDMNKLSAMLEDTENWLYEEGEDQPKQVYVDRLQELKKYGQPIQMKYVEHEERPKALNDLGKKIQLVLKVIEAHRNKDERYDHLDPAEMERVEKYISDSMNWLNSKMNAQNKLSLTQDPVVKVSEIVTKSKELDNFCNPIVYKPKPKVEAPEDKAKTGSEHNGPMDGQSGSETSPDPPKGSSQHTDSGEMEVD
UniProt P00342: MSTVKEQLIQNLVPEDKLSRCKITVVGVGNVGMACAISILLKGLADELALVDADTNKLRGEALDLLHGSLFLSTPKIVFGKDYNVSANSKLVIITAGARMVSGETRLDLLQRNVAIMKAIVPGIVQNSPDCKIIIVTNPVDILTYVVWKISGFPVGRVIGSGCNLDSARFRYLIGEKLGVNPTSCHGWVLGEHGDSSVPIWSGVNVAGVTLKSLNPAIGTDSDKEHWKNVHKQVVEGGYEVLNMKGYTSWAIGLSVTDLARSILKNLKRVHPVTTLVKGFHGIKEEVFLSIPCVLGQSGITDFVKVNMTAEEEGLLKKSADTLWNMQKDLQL

target: T1, recombinant RABL2 (isoform 2), conjugated to agarose (mouse) (UniProt E9Q9D5); assay: affinity purification with mass spectrometry; recombinant RABL2 on agarose loaded with GTP (compared with GDP-loaded), incubated with adult mouse testis extracts; bands preferentially bound to GTP-RABL2 cut from 12% SDS-PAGE gels, nano-LC ESI MS/MS; only the target purified
T1 sequence: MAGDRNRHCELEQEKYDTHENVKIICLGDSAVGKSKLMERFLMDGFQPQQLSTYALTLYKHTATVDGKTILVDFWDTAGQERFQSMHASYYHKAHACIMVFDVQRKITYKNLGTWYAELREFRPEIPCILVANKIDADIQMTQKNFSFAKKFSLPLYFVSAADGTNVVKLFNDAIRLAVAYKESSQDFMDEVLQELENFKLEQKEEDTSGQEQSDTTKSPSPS

binding | Substance
binds | microtubule plus end trafficking protein EB1 (from UniProt Q61166 1-268)
binds | HSPA4L (from UniProt P48722 1-838)
binds | LDHC (from UniProt P00342 1-332)
